Data source: PubChem BioAssay AID1159590 (NIAID, 2016)
In all, the deposit lists 756 reagents; this is an unselected part. 128 of them (17%) count as active. 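Calls are two-sided: both reduced and increased p65 nuclear entry count as active.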 The numbers tell different reagents against one gene apart. Not stated in the record: the amount of reagent.

- Test: 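Finding genes that mouse macrophage TLR2 agonist signalling relies on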
- System: mouse RAW264.7 macrophage reporter cells expressing GFP-p65 and a Tnf promoter-mCherry
- Reagent: single siRNA against mouse genes
- Timing: 48 to 72 hours after siRNA transfection, then 40 minutes of ligand
- Treatment: Pam3CSK4 (TLR2/1 agonist) for 40 minutes before fixation; dose not given
- Read-out: 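p65 nuclear translocation measured by high-content imaging, shown for each siRNA as a robust z-score averaged across replicates, relative to negative controls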
- Reading the numbers: p65 nuclear entry z-score: higher = more p65 moved into nuclei than in negative-control wells
- Rule for the call: In these data the active calls have p65 nuclear entry z-score, replicate mean at about -1.5 or lower, or at about 1.5 or higher
- Calls: active = strong change, up or down; inactive = little change

Mapk1 #1: p65 nuclear entry z-score, replicate mean = -0.992; Outcome = inactive
Mapk1 #2: p65 nuclear entry z-score, replicate mean = -1.21; Outcome = inactive
Mapk1 #3: p65 nuclear entry z-score, replicate mean = -1.14; Outcome = inactive
Mapk1 #4: p65 nuclear entry z-score, replicate mean = -0.577; Outcome = inactive
Mapk1 #5: p65 nuclear entry z-score, replicate mean = -0.0217; Outcome = inactive
Mapk1 #6: p65 nuclear entry z-score, replicate mean = -0.0467; Outcome = inactive
Tradd #1: p65 nuclear entry z-score, replicate mean = -2.4; Outcome = active
Tradd #2: p65 nuclear entry z-score, replicate mean = 1.11; Outcome = inactive
Tradd #3: p65 nuclear entry z-score, replicate mean = -0.778; Outcome = inactive
Tradd #4: p65 nuclear entry z-score, replicate mean = 0.454; Outcome = inactive
Tradd #5: p65 nuclear entry z-score, replicate mean = -0.844; Outcome = inactive
Tradd #6: p65 nuclear entry z-score, replicate mean = -0.536; Outcome = inactive
Cd14 #1: p65 nuclear entry z-score, replicate mean = -0.83; Outcome = inactive
Cd14 #2: p65 nuclear entry z-score, replicate mean = -2.12; Outcome = active
Cd14 #3: p65 nuclear entry z-score, replicate mean = -1.4; Outcome = inactive
Cd14 #4: p65 nuclear entry z-score, replicate mean = 2.9; Outcome = active
Cd14 #5: p65 nuclear entry z-score, replicate mean = 1.08; Outcome = inactive
Cd14 #6: p65 nuclear entry z-score, replicate mean = -0.654; Outcome = inactive
Tnfaip3 #1: p65 nuclear entry z-score, replicate mean = 0.381; Outcome = inactive
Tnfaip3 #2: p65 nuclear entry z-score, replicate mean = -1.65; Outcome = active
Tnfaip3 #3: p65 nuclear entry z-score, replicate mean = 1.48; Outcome = inactive
Tnfaip3 #4: p65 nuclear entry z-score, replicate mean = 0.84; Outcome = inactive
Tnfaip3 #5: p65 nuclear entry z-score, replicate mean = -1.09; Outcome = inactive
Tnfaip3 #6: p65 nuclear entry z-score, replicate mean = -0.749; Outcome = inactive
Tlr4 #1: p65 nuclear entry z-score, replicate mean = 0.567; Outcome = inactive
Tlr4 #2: p65 nuclear entry z-score, replicate mean = 0.725; Outcome = inactive
Tlr4 #3: p65 nuclear entry z-score, replicate mean = 0.478; Outcome = inactive
Tlr4 #4: p65 nuclear entry z-score, replicate mean = 0.401; Outcome = inactive
Tlr4 #5: p65 nuclear entry z-score, replicate mean = -0.363; Outcome = inactive
Tlr4 #6: p65 nuclear entry z-score, replicate mean = -1.3; Outcome = inactive
Egr1 #1: p65 nuclear entry z-score, replicate mean = -1; Outcome = inactive
Egr1 #2: p65 nuclear entry z-score, replicate mean = -0.183; Outcome = inactive
Egr1 #3: p65 nuclear entry z-score, replicate mean = -0.536; Outcome = inactive
Egr1 #4: p65 nuclear entry z-score, replicate mean = -0.588; Outcome = inactive
Egr1 #5: p65 nuclear entry z-score, replicate mean = 3.46; Outcome = active
Egr1 #6: p65 nuclear entry z-score, replicate mean = -0.831; Outcome = inactive

Records above whose target name starts with M or m (6):
Mapk1 #1: p65 nuclear entry z-score, replicate mean = -0.992; Outcome = inactive
Mapk1 #2: p65 nuclear entry z-score, replicate mean = -1.21; Outcome = inactive
Mapk1 #3: p65 nuclear entry z-score, replicate mean = -1.14; Outcome = inactive
Mapk1 #4: p65 nuclear entry z-score, replicate mean = -0.577; Outcome = inactive
Mapk1 #5: p65 nuclear entry z-score, replicate mean = -0.0217; Outcome = inactive
Mapk1 #6: p65 nuclear entry z-score, replicate mean = -0.0467; Outcome = inactive
